Test results from patent publication US10053451B2, “Heterocyclic estrogen receptor modulators and uses thereof” (priority 2015, dated 2018).

Tested on: MCF-7 cells
Test: Breast Cancer Cell Viability Assay (CellTiter-Glo)
Format: cell-based
Conditions: Homo sapiens, MCF7, 120 h, 5 days of compound exposure, read-out: MCF7 viab IC50
Experimental: The following day a 10 point, serial 1:5 dilution of each compound was added to the cells in 16 μL at a final concentration ranging from 10-0.00000 μM. After 5 days of compound exposure, 16 μL of CellTiter-GLo (Promega, Madison Wis.) was added to the cells, and the relative luminescence units (RLUs) of each well were determined. CellTiter-Glo added to 32 μL of medium without cells was used to obtain a background value.

IC50: 380 nM
SMILES: CC/C(=C(\c1ccccc1)c1ccc(OCCN(C)C)cc1)c1ccccc1 [tamoxifen, reference compound]
